# Experimental data from PubChem BioAssay AID2631 (Broad Institute, 2010).
# Some of the results follow. Entries without a call are filed as inconclusive in the source.
# Assay: growth inhibition of engineered Ras-driven BJ cells – cell-based, alamar blue fluorescence, cherrypicked samples, dose response (AID 2631)
# Settings: BJeLR fibroblast viability, 48 h, at 13.3 µM (top of the series)
row,SMILES,"activity, negative = growth loss [%]"
1,CSc1ccc(COC(=O)c2cc([N+](=O)[O-])ccc2N2CCOCC2)cc1,-67.1
2,COc1cc2c(c(OC)c1OC)-c1ccc(O)c(=O)cc1C(NC(C)=O)CC2 (stereo not drawn),-65.7
3,COc1ccccc1-c1nnc2sc(-c3ccc(N(C)C)cc3)nn12,-65
4,COc1ccc(COC(=O)c2cc([N+](=O)[O-])ccc2N2CCOCC2)cc1F,-70.3
5,COc1ccc2[nH]c3c(C)c4ccncc4c(C)c3c2c1,-52.2
6,COc1ccc(NC(=O)C(=O)NCC2CCCN2S(=O)(=O)c2ccc(C)cc2)cc1 (stereo not drawn),-66.1
7,Cc1ccc(C(=O)c2cc([N+](=O)[O-])ccc2N2CCCCC2)c(C)c1,-68.1
8,Cc1cccc(N(C)S(=O)(=O)c2ccc(-c3cnc(C4CC4)o3)cc2)c1,-68.2
